Binding data for one substance are collected here from doi:10.1101/2021.12.08.471864.

The chains behind the UniProt entries cited, without tags or fusion partners. Where a name states a change or a piece, a line headed by the entry shows the natural chain unless it says otherwise.
UniProt Q02563, whole entry: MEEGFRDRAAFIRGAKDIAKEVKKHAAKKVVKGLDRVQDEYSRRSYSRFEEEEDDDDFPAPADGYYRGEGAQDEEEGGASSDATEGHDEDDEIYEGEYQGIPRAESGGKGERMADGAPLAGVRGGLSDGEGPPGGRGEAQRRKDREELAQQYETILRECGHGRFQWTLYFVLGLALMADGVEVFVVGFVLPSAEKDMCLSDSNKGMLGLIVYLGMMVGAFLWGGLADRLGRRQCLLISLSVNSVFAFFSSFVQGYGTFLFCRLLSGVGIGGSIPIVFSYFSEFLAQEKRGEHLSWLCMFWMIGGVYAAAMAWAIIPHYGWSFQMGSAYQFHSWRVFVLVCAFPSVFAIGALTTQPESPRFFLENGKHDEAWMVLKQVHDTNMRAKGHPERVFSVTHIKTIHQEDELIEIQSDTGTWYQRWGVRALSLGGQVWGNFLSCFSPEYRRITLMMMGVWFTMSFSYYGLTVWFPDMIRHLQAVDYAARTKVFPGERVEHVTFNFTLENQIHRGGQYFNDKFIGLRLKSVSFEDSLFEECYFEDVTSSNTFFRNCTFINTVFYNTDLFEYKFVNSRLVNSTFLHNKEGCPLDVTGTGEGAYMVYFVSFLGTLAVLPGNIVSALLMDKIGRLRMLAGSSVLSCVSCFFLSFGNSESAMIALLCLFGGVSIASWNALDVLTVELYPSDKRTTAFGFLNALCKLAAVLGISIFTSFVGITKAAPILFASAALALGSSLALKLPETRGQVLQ
UniProt P21707, whole entry: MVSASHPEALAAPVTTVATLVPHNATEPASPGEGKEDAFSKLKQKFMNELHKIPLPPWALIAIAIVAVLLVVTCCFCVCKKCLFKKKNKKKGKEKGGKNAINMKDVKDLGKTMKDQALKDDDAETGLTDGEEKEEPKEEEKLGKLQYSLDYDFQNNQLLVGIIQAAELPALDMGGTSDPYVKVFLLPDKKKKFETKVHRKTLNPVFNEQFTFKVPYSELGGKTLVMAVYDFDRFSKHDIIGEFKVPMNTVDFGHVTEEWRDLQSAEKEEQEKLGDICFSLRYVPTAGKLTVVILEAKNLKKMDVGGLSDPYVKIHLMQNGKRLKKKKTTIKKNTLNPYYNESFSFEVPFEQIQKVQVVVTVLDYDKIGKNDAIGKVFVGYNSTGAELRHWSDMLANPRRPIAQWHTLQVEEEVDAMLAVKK

The target of one experiment is SV2A^Y46A-mCer (UniProt Q02563). Kind of experiment: co-IP.
The target in experiment [1] is SV2A^WT-mCer (synaptic vesicle protein 2A tagged with mCerulean) (UniProt Q02563). Kind of experiment: co-IP.

Results are given in words; binding and its absence hold for the method and conditions named. Binding seen in cells or lysates may run through a third protein. Some binding calls cover weakened binding; strength is not graded here.

Turning to “synaptotagmin-1-HA (from UniProt P21707 1-421)”, the binding entry (with SV2A^Y46A-mCer; in experiment [1]) was “binds” throughout.
